The nature of this data set: Levels of divalent metal ions in muscles, kidneys and liver in obesity model. Type of data set: in vivo. As to conditions: DIO rats (high-fat diet), zinc aspartate 4.5 mg/animal intragastrically every third day, week 10.

This is an account of results in patent EP4076432B1, “COMPOSITION AND METHOD FOR THE PREVENTION AND TREATMENT OF OBESITY” (Vector Vitale IP LLC, priority 2019, dated 2021).

Structures are written as SMILES.

Turning to `N[C@@H](CC(=O)[O-])C(=O)[O-].[Zn+2]` [^64Zne, zinc aspartate], for the setting “kidneys”, the “Copper level, Kidneys” value came to 4.94±0.82 µg/g tissue. Under “liver”, the “Copper level, Liver” value is given as 3.93±0.09 µg/g tissue and the “Manganese level, Liver” value amounted to 1.94±0.12 µg/g tissue.
